Paper PMC10897291
These are yes or no findings as the source states them, for the method shown. Binding seen in cells or lysates may run through a third protein. Some results given as binding are weak or reduced against the parent protein; the word gives no strength. For some of these results: Sequences can lack the tags named with a protein. Values belong to the molecule of their own block, whether it stands above or below them.

Chains of the proteins cited; added tags and fusions are not shown.
UniProt O80982: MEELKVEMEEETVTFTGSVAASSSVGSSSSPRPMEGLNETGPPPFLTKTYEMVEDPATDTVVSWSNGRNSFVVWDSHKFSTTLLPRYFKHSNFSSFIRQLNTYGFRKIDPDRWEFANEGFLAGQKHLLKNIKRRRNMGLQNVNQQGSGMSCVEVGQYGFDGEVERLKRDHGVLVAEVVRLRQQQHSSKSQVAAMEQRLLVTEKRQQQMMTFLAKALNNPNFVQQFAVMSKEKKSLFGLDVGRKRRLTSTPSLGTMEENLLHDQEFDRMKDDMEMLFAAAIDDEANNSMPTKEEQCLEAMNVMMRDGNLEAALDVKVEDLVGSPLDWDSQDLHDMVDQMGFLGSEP

Columns and labels:
[1] = target: T1, HALO-CDK8 (Arabidopsis thaliana) (UniProt Q84TI6); assay: pull-down; FLAG-tagged HSFA and HALO-tagged CDK8 co-translated in wheat germ extract; captured with MagneHalo beads; immunoblot against FLAG and HALO
T1 sequence: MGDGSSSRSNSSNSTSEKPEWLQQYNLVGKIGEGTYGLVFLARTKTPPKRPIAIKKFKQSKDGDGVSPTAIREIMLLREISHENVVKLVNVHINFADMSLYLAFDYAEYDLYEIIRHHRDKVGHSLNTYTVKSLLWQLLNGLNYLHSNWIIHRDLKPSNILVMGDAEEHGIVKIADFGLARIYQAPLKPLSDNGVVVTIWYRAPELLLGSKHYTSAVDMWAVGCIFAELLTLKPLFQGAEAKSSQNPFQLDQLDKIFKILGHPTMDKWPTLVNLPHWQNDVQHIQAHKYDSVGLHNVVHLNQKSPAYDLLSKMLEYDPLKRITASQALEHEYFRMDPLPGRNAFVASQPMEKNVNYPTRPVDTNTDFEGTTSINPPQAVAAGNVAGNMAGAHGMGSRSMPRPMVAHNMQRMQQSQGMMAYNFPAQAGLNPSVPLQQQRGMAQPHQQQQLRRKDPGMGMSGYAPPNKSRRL

[2] = target: T2, C-RLuc-CDK8 fusion protein (CYCLIN-… KINASE 8) (Arabidopsis thaliana) (UniProt Q84TI6); assay: split reporter; split Renilla luciferase complementation in transiently transformed Nicotiana benthamiana leaves; expression induced with 100 uM beta-estradiol for 24 h; 10 uM ViviRen substrate, bioluminescence detected for 30 min
T2 sequence: T1 sequence

[3] = target: FLAG-HSFA2 (transgenic A. thaliana) (Arabidopsis thaliana) (UniProt O80982); assay: co-IP; as the co-IP from CDK8-MYC FLAG-HSFA2 A. thaliana seedlings, but sampled 28 h after the end of the ACC heat treatment; anti-FLAG beads; immunoblot against MYC and FLAG
[4] = target: FLAG-HSFA2 (transgenic A. thaliana) (Arabidopsis thaliana) (UniProt O80982); assay: co-IP; total protein extracts of CDK8-MYC FLAG-HSFA2 A. thaliana seedlings sampled 0 to 4 h after the end of an ACC heat treatment; anti-FLAG (DYKDDDDK) paramagnetic beads, 50 mM Tris-HCl pH 7.5, 50 mM NaCl, Triton X-100; immunoblot against MYC and FLAG

binding [1]: binds
Molecule: FLAG-HSFA3 (in vitro translated) (from UniProt Q8GYY1 1-412)

binding [2]: binds
Molecule: N-RLuc-HSFA3 (HEAT SHOCK …ON FACTOR A3) (from UniProt Q8GYY1 1-412)

binding [3]: no binding (condition: 28 h after ACC)
binding [4]: binds
B1: CDK8-MYC (enzyme, UniProt Q84TI6 1-470)
chain: T1 sequence
